Source: US8455616B2 (National Center for Global Health and Medicine, priority 2007, dated 2013)

Experiment: peptide synthesis
Details: whole synthesis, 220 nm

LR8DRIHF
crude HPLC purity: 100.0%
